Assay results from patent US20100151524A1 (DARWIN DISCOVERY, published 2010).
These are yes or no findings as the source states them, for the method shown. Some binding calls cover weakened binding; strength is not graded here.

Amino acid sequences for entries named in this document (tags omitted). A change or cut given only in a name is not applied to a line headed by its entry.
UniProt Q9BQB4: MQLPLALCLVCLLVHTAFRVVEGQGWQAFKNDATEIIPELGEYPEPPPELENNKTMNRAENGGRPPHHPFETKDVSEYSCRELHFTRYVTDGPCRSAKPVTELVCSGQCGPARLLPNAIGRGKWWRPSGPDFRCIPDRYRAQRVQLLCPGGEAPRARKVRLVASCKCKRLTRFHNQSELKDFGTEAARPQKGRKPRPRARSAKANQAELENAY

Key:
[1] = target: T1, BMP-6 (UniProt P22004 382-513, limits assumed); test: anti-FLAG immunoprecipitation of FLAG-tagged Beer incubated with BMP-6, anti-BMP-6 western blot
T1 sequence (looked up): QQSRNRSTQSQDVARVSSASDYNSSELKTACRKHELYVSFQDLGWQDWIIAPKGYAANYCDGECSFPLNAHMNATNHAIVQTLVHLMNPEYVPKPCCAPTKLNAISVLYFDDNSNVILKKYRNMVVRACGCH

[2] = target: T1, BMP-6; test: immunoprecipitation on FLAG affinity matrix, western blot

FLAG epitope-tagged Beer (human Beer, secretion signal removed, C-terminal FLAG tag, from baculovirus-infected SF9 cells) (from UniProt Q9BQB4 24-213)
binding [1]: binds | binding [2]: binds
